Measurements: the supplement of paper PMC12823440, “Inhibitors supercharge kinase turnover through native proteolytic circuits” (Nature, 2025)
Counter-ions that a name gives are not always drawn. The list shows a part of the results. Hit calls seldom repeat between salt and free forms of one compound.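 Kinases, fused to nanoluciferase, were expressed in K562 cells; luminescence was measured every 4 h from 2 to 18 h as percent of control (DMSO = 100%, positive control = 0%). A time point is decreased if signal falls significantly (2 sigma). Hits were called by the authors by a rule that is not shown; the count of time points alone does not decide it.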

Chains of the proteins cited; added tags and fusions are not shown. Lines headed by an entry give the natural chain unless they say otherwise; changes in a name come on top.
UniProt P48729: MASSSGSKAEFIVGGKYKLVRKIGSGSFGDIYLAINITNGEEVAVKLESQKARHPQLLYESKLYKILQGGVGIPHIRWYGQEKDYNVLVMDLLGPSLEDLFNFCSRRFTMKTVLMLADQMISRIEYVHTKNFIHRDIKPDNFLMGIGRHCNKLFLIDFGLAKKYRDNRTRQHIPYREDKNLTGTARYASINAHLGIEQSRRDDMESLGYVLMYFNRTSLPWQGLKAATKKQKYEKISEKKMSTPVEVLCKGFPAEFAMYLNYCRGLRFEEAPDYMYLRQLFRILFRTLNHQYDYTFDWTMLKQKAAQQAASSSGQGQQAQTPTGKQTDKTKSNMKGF
UniProt P48730: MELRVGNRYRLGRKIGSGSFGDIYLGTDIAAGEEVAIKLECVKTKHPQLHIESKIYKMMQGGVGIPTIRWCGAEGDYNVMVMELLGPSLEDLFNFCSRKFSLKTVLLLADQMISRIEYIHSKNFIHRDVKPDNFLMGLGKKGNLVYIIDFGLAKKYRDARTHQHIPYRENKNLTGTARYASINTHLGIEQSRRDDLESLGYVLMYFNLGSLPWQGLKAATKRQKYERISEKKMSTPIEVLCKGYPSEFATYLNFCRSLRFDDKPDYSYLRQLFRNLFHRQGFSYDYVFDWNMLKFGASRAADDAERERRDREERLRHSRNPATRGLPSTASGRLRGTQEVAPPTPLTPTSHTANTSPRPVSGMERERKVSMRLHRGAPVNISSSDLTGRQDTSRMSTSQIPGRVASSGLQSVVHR
UniProt Q08345: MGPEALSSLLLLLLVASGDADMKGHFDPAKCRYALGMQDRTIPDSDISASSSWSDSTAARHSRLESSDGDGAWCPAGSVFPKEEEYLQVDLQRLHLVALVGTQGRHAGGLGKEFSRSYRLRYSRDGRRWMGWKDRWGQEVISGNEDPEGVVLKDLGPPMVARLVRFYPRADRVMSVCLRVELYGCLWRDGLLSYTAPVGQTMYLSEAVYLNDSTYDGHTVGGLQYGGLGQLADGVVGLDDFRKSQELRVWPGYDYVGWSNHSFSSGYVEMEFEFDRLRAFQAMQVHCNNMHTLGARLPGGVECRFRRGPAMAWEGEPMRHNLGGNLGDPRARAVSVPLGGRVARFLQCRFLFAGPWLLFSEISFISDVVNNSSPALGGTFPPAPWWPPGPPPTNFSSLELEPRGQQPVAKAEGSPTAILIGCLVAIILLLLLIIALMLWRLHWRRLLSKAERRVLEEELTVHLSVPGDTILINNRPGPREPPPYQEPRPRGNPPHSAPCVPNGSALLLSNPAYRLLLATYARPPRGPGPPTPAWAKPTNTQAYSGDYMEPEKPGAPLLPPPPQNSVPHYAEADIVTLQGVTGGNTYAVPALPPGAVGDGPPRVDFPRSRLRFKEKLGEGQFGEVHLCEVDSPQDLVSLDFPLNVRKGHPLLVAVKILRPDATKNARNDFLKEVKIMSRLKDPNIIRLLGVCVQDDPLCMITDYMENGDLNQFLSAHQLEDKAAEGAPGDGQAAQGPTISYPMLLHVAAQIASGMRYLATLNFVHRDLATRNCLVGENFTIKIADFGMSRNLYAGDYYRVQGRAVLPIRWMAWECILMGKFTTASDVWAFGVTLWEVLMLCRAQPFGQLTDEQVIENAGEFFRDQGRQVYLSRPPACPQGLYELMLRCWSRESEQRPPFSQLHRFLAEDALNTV
UniProt Q9Y463, whole entry, looked up: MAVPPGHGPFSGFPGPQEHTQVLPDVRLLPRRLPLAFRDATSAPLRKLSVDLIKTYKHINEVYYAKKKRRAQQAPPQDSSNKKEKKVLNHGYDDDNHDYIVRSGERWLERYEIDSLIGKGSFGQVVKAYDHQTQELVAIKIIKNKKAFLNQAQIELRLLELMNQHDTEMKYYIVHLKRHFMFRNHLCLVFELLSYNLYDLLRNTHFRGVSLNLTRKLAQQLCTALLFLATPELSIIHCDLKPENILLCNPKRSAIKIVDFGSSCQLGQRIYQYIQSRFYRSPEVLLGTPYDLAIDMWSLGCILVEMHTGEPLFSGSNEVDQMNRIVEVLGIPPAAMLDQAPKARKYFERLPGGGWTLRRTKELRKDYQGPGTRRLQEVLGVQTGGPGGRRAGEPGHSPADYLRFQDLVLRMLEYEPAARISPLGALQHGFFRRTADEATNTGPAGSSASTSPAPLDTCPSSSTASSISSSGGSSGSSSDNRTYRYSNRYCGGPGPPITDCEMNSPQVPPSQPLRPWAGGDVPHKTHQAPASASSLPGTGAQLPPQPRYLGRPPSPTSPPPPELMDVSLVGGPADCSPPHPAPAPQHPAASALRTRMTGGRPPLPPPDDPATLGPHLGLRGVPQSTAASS
UniProt Q92630: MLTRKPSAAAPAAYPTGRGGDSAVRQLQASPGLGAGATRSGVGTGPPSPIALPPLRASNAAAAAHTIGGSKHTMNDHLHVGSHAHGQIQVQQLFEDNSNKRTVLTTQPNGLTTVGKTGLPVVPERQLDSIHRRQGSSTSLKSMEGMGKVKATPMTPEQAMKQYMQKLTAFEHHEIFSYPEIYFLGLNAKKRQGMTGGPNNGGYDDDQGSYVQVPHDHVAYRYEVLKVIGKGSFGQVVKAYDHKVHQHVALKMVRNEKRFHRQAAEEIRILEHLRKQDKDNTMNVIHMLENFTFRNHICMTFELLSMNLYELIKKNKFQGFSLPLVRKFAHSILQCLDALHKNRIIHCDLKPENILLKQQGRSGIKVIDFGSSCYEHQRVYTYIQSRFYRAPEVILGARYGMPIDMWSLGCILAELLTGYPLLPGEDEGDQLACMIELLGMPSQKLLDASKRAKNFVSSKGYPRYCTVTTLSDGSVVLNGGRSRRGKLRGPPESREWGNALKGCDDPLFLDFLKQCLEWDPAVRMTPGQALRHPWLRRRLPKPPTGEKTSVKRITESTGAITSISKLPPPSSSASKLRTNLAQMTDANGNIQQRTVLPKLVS

Assays:
Test in all cases: number of time points (of 5) at which kinase-Nluc abundance scored as decreased, DMSO-normalised (count); higher = more persistent destabilization
Conditions in all cases: K562; 2-18 h
[1] = target: CSNK1A1 (UniProt P48729)
[2] = target: CSNK1D (UniProt P48730)
[3] = target: DDR1 (UniProt Q08345)
[4] = target: DYRK1B (UniProt Q9Y463)
[5] = target: DYRK2 (UniProt Q92630)
[6] = target: EGFR (UniProt P00533)
[7] = target: EGFR_G719S (UniProt P00533)
[8] = target: EGFR_G719S_T790M (UniProt P00533)
[9] = target: EGFR_L718V (UniProt P00533)
[10] = target: EGFR_L858R (UniProt P00533)

Measured: number of time points

CC1(COc2ccc3c(c2)ncn3-c2ccc3cccc(N4CCC(N)CC4)c3n2)COC1 [Crenolanib] (2.5 µM)
1: [5]
3: [3]
0: all other assays above

CN(C)Cc1cccc(N=C(c2ccccc2)c2c(O)[nH]c3cc(C(=O)N(C)C)ccc23)c1 (10 µM)
0: all assays above

Nc1nc2cc(-c3ccc4ncc(C(=O)N5CCOCC5)n4c3)ccc2o1 [Serabelisib] (10 µM)
0: all assays above

Cc1ccc(-c2ccc3c(ccc4sc5c(c43)NC[C@@H](C)NC5=O)n2)cn1 (10 µM)
0: all assays above

O=C(O)c1ccc(N2N=C(Cc3ccccc3)C(=Cc3ccc(-c4ccccc4F)o3)C2=O)cc1 (10 µM)
0: all assays above

O=c1[nH]ccc2cc(OC3CCNCC3)ccc12 (10 µM)
0: all assays above

c1cc(-c2cnn3cc(-c4ccc(N5CCNCC5)cc4)cnc23)c2cccnc2c1 (2.5 µM)
2: [7]
1: [1]
4: [3]
0: all other assays above

C[C@@H]1O[C@@H](OC[C@H]2O[C@@H](Oc3cc(O)c4c(c3)O[C@H](c3ccc(O)cc3)CC4=O)[C@H](O)[C@@H](O)[C@@H]2O)[C@H](O)[C@H](O)[C@H]1O [Narirutin] (10 µM)
0: all assays above

O=C(CCCCCn1cc(Nc2ncc(Cl)c(Nc3ccc(Cl)cc3)n2)cn1)NO (2.5 µM)
1: [2] | [6] | [8] | [9]
0: all other assays above

Cc1nc(NC(=O)NCCc2nnn(CCF)n2)sc1-c1ccc(S(C)(=O)=O)c(F)c1 (10 µM)
0: all assays above

COc1ccc(CCNc2ncc3c(=O)n(-c4cccc(F)c4)c(=O)[nH]c3n2)cc1OC (2 µM)
0: all assays above

COc1nc(-c2cccc3c2OCCO3)ccc1Nc1ccc(CN(C)C)cc1 [RAS inhibitor Abd-7] (10 µM)
0: all assays above

O=Nc1c(-c2c(O)[nH]c3ccccc23)[nH]c2ccccc12 [Indirubin-3'-monoxime] (2.5 µM)
0: all assays above

Oc1ccccc1C(=S)N1CCCC1 (10 µM)
0: all assays above

O=C(c1ccc(Nc2nccc(-c3cc4ccccc4s3)n2)cc1)N1CCC(N2CCCC2)CC1 (2.5 µM)
0: all assays above

CN(C)Cc1cccc(N=C(c2ccccc2)c2c(O)[nH]c3cc(C(N)=O)ccc23)c1 (10 µM)
0: all assays above

Nc1ncc(-c2ccc(C(=O)N3CCNCC3)cc2)nc1-c1ccc(C(F)(F)F)cc1 (10 µM)
0: all assays above

COc1cc(N2CCC(N3CCN(C)CC3)CC2)ccc1Nc1nc2c(c(Nc3ccccc3S(=O)(=O)NC(C)C)n1)CCN2 [Conteltinib] (10 µM)
1: [3]
0: all other assays above

O=C1NC(=O)/C(=C/c2ccc(-c3ccc(F)cc3O)o2)S1 (10 µM)
0: all assays above

Cc1cc(Nc2cc(CN3CCOCC3)c3nc(C)c(Cc4ccc(Cl)cc4F)n3n2)n[nH]1 [Gandotinib] (2.5 µM)
0: all assays above

CC(=O)NCCc1c[nH]c2ccc(O)cc12 [N-Acetyl-5-hydroxytryptamine] (10 µM)
0: all assays above

C=C[C@H]1[C@H](O[C@@H]2O[C@H](CO)[C@@H](O)[C@H](O)[C@H]2OC(=O)c2c(O)cc(O)cc2-c2cccc(O)c2)OC=C2C(=O)OCC[C@H]21 [Amarogentin] (10 µM)
0: all assays above

CC(C)C[C@H](NC(=O)[C@H](CCCCN)NC(=O)[C@H](CO)NC(=O)[C@@H](N)CC(C)C)C(N)=O [LSKL, Inhibitor of Thrombospondin (TSP-1) (TFA)] (10 µM)
0: all assays above

O=C(Nc1cccc(-c2nncn2C2CC2)c1)c1cc(-n2cnc(C3CC3)c2)ccn1 (10 µM)
0: all assays above

O=C(NOCCO)c1ccc2cncn2c1Nc1ccc(I)cc1F (10 µM)
1: [8] | [10]
2: [5]
0: all other assays above

Cc1cc2ncc(-c3ccccc3)nc2cc1C (10 µM)
0: all assays above

Cc1cc(C(C)Nc2ccccc2)c2nc(N3CCOCC3)cc(=O)n2c1 (stereo not given) (10 µM)
0: all assays above

O=C1NC(=O)C(c2cnc3ccccn23)=C1c1cn2c3c(cc(F)cc13)CN(C(=O)N1CCCCC1)CC2 (2.5 µM)
0: all assays above

COc1cc2ncnc(Nc3ccc(NC(=O)c4ccccc4)cc3)c2cc1OC [Aurora kinase inhibitor-2] (2.5 µM)
0: all assays above

N#Cc1ccc(-c2c(-c3ncn[nH]3)sc(N3CCOCC3)c2C#N)c(F)c1 (10 µM)
3: [3]
4: [5]
0: all other assays above

CC(C)(C)Cn1c(N)nc2ccc(-c3[nH]c(C(C)(C)C)nc3-c3ccc(F)cc3)nc21 [Ralimetinib dimesylate] (2.5 µM)
0: all assays above

Cn1ncc(Cl)c1-c1cc(C(=O)N[C@H](CN)Cc2ccc(F)c(F)c2)sc1Cl (10 µM)
1: [3]
0: all other assays above

O=c1ccoc2cc(O)ccc12 [7-Hydroxy-4H-chromen-4-one] (10 µM)
0: all assays above

CNC(=O)c1ccc(-c2cnc3cnc(-c4ccccc4)cn23)cc1 (10 µM)
0: all assays above

CCCCCCCC/C=C\CCCCCCCC(=O)NCC(=O)O [N-Oleoyl glycine] (10 µM)
0: all assays above

C=CS(=O)(=O)c1ccc(Nc2nc(OCC3CCCCC3)c3[nH]cnc3n2)cc1 (2.5 µM)
0: all assays above

CCOc1nc(Nc2ccc(C(=O)N3CCOCC3)cc2OC)nc2[nH]ccc12 [LRRK2 inhibitor 1] (2.5 µM)
0: all assays above

Taken from the results shown (8 entries):
O=C1NC(=O)C(c2cnc3ccccn23)=C1c1cn2c3c(cc(F)cc13)CN(C(=O)N1CCCCC1)CC2 (2.5 µM)
0: all assays above

COc1cc2ncnc(Nc3ccc(NC(=O)c4ccccc4)cc3)c2cc1OC [Aurora kinase inhibitor-2] (2.5 µM)
0: all assays above

N#Cc1ccc(-c2c(-c3ncn[nH]3)sc(N3CCOCC3)c2C#N)c(F)c1 (10 µM)
3: [3]
4: [5]
0: all other assays above

CC(C)(C)Cn1c(N)nc2ccc(-c3[nH]c(C(C)(C)C)nc3-c3ccc(F)cc3)nc21 [Ralimetinib dimesylate] (2.5 µM)
0: all assays above

Cn1ncc(Cl)c1-c1cc(C(=O)N[C@H](CN)Cc2ccc(F)c(F)c2)sc1Cl (10 µM)
1: [3]
0: all other assays above

O=c1ccoc2cc(O)ccc12 [7-Hydroxy-4H-chromen-4-one] (10 µM)
0: all assays above

CNC(=O)c1ccc(-c2cnc3cnc(-c4ccccc4)cn23)cc1 (10 µM)
0: all assays above

CCCCCCCC/C=C\CCCCCCCC(=O)NCC(=O)O [N-Oleoyl glycine] (10 µM)
0: all assays above
